Results taken from publication PMC11661440.
No constants are given. Whether binding was seen depends on the method and setting. Some binding calls cover weakened binding; strength is not graded here. Sequences can lack the tags named with a protein.

Molecular target: YFP-TNIK (full-length wild type) (human), Q9UKE5
Assay: cross-linking; disulfide-linked species of YFP-TNIK immunoprecipitated from HEK293T lysate on GFP-Trap beads (washed with 500 mM NaCl); oxidised with 0, 0.2, 0.5 and 1 mM H2O2 at 30°C for 15 min; nonreducing SDS-PAGE and Western blotting; both purified
Details: remark: other sources report otherwise

binding: binds
B1: YFP-TNIK (full-length wild type), Q9UKE5 1-1360 (protein)
chain: MASDSPARSLDEIDLSALRDPAGIFELVELVGNGTYGQVYKGRHVKTGQLAAIKVMDVTGDEEEEIKQEINMLKKYSHHRNIATYYGAFIKKNPPGMDDQLWLVMEFCGAGSVTDLIKNTKGNTLKEEWIAYICREILRGLSHLHQHKVIHRDIKGQNVLLTENAEVKLVDFGVSAQLDRTVGRRNTFIGTPYWMAPEVIACDENPDATYDFKSDLWSLGITAIEMAEGAPPLCDMHPMRALFLIPRNPAPRLKSKKWSKKFQSFIESCLVKNHSQRPATEQLMKHPFIRDQPNERQVRIQLKDHIDRTKKKRGEKDETEYEYSGSEEEEEENDSGEPSSILNLPGESTLRRDFLRLQLANKERSEALRRQQLEQQQRENEEHKRQLLAERQKRIEEQKEQRRRLEEQQRREKELRKQQEREQRRHYEEQMRREEERRRAEHEQEYIRRQLEEEQRQLEILQQQLLHEQALLLEYKRKQLEEQRQAERLQRQLKQERDYLVSLQHQRQEQRPVEKKPLYHYKEGMSPSEKPAWAKEVEERSRLNRQSSPAMPHKVANRISDPNLPPRSESFSISGVQPARTPPMLRPVDPQIPHLVAVKSQGPALTASQSVHEQPTKGLSGFQEALNVTSHRVEMPRQNSDPTSENPPLPTRIEKFDRSSWLRQEEDIPPKVPQRTTSISPALARKNSPGNGSALGPRLGSQPIRASNPDLRRTEPILESPLQRTSSGSSSSSSTPSSQPSSQGGSQPGSQAGSSERTRVRANSKSEGSPVLPHEPAKVKPEESRDITRPSRPASYKKAIDEDLTALAKELRELRIEETNRPMKKVTDYSSSSEESESSEEEEEDGESETHDGTVAVSDIPRLIPTGAPGSNEQYNVGMVGTHGLETSHADSFSGSISREGTLMIRETSGEKKRSGHSDSNGFAGHINLPDLVQQSHSPAGTPTEGLGRVSTHSQEMDSGTEYGMGSSTKASFTPFVDPRVYQTSPTDEDEEDEESSAAALFTSELLRQEQAKLNEARKISVVNVNPTNIRPHSDTPEIRKYKKRFNSEILCAALWGVNLLVGTENGLMLLDRSGQGKVYNLINRRRFQQMDVLEGLNVLVTISGKKNKLRVYYLSWLRNRILHNDPEVEKKQGWITVGDLEGCIHYKVVKYERIKFLVIALKNAVEIYAWAPKPYHKFMAFKSFADLQHKPLLVDLTVEEGQRLKVIFGSHTGFHVIDVDSGNSYDIYIPSHIQGNITPHAIVILPKTDGMEMLVCYEDEGVYVNTYGRITKDVVLQWGEMPTSVAYIHSNQIMGWGEKAIEIRSVETGHLDGVFMHKRAQRLKFLCERNDKVFFASVRSGGSSQVFFMTLNRNSMMNW
